Source: article PMC9402713, “Structural analysis of Red1 as a conserved scaffold of the RNA-targeting MTREC/PAXT complex” (Nature Communications, 2022)
These are yes or no findings as the source states them, for the method shown. For some assays here: Binding calls can cover weak binding; strength is not graded here. For some assays here: In cells and extracts the contact can be indirect. For some assays here: Sequences can lack the tags named with a protein.

How the values were obtained:
[1] = target: T1, Strep-Ars2 107-527 (S. pombe, UniProt O94326 107-527); experiment: pull-down; Strep-tag pull-down: Ni-purified Strep-Ars2 107-527 held on Strep-Tactin XT, Ni-purified His-MBP-Red1 added; 20 mM Tris pH 8, 100 mM NaCl; eluted with 50 mM D-biotin; both purified
T1 construct: vector pETM41; source: E. coli BL21Star (DE3), purified (Ni^2+ chelating Sepharose); not shown: Strep-tag, C-terminal, kept
T1 sequence (looked up): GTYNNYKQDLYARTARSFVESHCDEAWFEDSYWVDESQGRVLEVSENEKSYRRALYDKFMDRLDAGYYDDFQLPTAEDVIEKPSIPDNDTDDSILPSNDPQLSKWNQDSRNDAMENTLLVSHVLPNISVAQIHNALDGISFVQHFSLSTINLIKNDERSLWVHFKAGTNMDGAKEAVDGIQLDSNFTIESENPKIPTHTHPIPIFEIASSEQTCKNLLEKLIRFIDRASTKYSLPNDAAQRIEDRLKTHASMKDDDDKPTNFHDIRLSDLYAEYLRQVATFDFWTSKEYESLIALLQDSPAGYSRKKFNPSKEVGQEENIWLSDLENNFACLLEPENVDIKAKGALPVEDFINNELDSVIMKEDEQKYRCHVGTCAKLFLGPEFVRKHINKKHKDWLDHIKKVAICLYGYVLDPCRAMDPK

[2] = target: T2, Red1-TAP (S. pombe) (UniProt Q9UTR8); experiment: co-IP; soluble extracts of S. pombe grown in minimal medium; Red1-TAP held on IgG Sepharose, 2 h at 4 °C, 150 mM NaCl, 0.2% NP-40; western blot
T2 sequence: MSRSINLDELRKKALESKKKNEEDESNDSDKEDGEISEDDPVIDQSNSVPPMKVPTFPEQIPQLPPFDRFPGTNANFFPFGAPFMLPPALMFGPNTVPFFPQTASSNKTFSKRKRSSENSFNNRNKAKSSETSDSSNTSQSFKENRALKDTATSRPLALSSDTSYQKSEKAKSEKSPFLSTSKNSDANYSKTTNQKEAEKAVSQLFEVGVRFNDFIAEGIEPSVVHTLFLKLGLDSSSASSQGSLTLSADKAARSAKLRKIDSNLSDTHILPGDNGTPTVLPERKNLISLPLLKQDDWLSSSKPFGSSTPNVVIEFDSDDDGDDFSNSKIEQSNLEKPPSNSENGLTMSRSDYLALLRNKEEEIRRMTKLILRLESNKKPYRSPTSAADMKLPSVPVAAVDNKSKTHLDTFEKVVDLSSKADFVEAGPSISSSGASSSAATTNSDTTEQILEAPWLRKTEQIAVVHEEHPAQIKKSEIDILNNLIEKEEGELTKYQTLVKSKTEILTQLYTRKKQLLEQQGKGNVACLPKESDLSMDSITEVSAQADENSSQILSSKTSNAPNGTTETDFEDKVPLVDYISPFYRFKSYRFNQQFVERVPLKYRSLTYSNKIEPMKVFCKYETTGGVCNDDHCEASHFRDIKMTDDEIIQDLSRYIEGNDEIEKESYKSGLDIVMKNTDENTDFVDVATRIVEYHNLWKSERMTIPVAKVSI

[3] = target: Strep-Iss10 1-45 (S. pombe); experiment: pull-down; Strep-tag pull-down: His-MBP-Red1 and Strep-Iss10 co-expressed in E. coli, supernatant loaded on Strep-Tactin XT; 20 mM Tris pH 8, 100 mM NaCl, 5 mM β-mercaptoethanol; eluted with 50 mM D-biotin
[4] = target: Strep-Iss10 1-45 (S. pombe); experiment: NMR structure; solution structure of the co-purified 13C,15N-labelled Red1 192-236 / Iss10 1-45 heterodimer, 298 K; both purified
[5] = target: Iss10-GFP (S. pombe); experiment: co-IP; reciprocal: S. pombe extracts treated with TEV protease to remove the protein A part of the TAP tag, Iss10-GFP held on GFP-Trap magnetic beads; western blot
[6] = target: Ars2 68-183,206-531 (S. pombe); experiment: crystal structure; dimeric Ars2 68-183,206-531 at 8 mg/ml with a three-fold molar excess of Red1 20-40 peptide; hanging drop, 5 °C; 2.8 Å; both purified

For “His-MBP-Red1 20-40 mutated at Asp33 (from UniProt Q9UTR8) (domain or fragment)”, the binding [1] was “no binding”.

In the case of “His-MBP-Red1 20-40 mutated at Glu35 (from UniProt Q9UTR8) (domain or fragment)”, the binding [1] is reported as “no binding”.

“His-MBP-Red1 20-40 mutated at Ile36 (from UniProt Q9UTR8) (domain or fragment)” was tested, and the binding [1] was “no binding”.

With Iss10-GFP (S. pombe) the binding [2] was “binds”.

B1: His-MBP-Red1 192-236 (domain or fragment, UniProt Q9UTR8 192-236)
chain: TTNQKEAEKAVSQLFEVGVRFNDFIAEGIEPSVVHTLFLKLGLDS
For B1, the binding [3] was “binds”.

B2: Red1 192-236, His-MBP tag cleaved (domain or fragment, UniProt Q9UTR8 192-236)
chain: TTNQKEAEKAVSQLFEVGVRFNDFIAEGIEPSVVHTLFLKLGLDS
In the case of B2, the binding [4] is reported as “binds”.

B3: Red1-TAP (protein, UniProt Q9UTR8 1-712)
chain: MSRSINLDELRKKALESKKKNEEDESNDSDKEDGEISEDDPVIDQSNSVPPMKVPTFPEQIPQLPPFDRFPGTNANFFPFGAPFMLPPALMFGPNTVPFFPQTASSNKTFSKRKRSSENSFNNRNKAKSSETSDSSNTSQSFKENRALKDTATSRPLALSSDTSYQKSEKAKSEKSPFLSTSKNSDANYSKTTNQKEAEKAVSQLFEVGVRFNDFIAEGIEPSVVHTLFLKLGLDSSSASSQGSLTLSADKAARSAKLRKIDSNLSDTHILPGDNGTPTVLPERKNLISLPLLKQDDWLSSSKPFGSSTPNVVIEFDSDDDGDDFSNSKIEQSNLEKPPSNSENGLTMSRSDYLALLRNKEEEIRRMTKLILRLESNKKPYRSPTSAADMKLPSVPVAAVDNKSKTHLDTFEKVVDLSSKADFVEAGPSISSSGASSSAATTNSDTTEQILEAPWLRKTEQIAVVHEEHPAQIKKSEIDILNNLIEKEEGELTKYQTLVKSKTEILTQLYTRKKQLLEQQGKGNVACLPKESDLSMDSITEVSAQADENSSQILSSKTSNAPNGTTETDFEDKVPLVDYISPFYRFKSYRFNQQFVERVPLKYRSLTYSNKIEPMKVFCKYETTGGVCNDDHCEASHFRDIKMTDDEIIQDLSRYIEGNDEIEKESYKSGLDIVMKNTDENTDFVDVATRIVEYHNLWKSERMTIPVAKVSI
For B3, the binding [5] was “binds”.

B4: Red1 peptide 20-40 (peptide)
peptide: KNEEDESNDSDKEDGEISEDD
notes: Red1, S. pombe, residues 20-40 with the EDGEI motif; also called Red1^20–40 peptide; Red1 N-terminal peptide; source: synthetic peptide (PSL GMBH)
With B4 the binding [6] was “binds”.
